The series addresses T1, IolQ-His6 (DegA) (Bacillus subtilis 168) (UniProt P37947).
T1 sequence (looked up, limits assumed): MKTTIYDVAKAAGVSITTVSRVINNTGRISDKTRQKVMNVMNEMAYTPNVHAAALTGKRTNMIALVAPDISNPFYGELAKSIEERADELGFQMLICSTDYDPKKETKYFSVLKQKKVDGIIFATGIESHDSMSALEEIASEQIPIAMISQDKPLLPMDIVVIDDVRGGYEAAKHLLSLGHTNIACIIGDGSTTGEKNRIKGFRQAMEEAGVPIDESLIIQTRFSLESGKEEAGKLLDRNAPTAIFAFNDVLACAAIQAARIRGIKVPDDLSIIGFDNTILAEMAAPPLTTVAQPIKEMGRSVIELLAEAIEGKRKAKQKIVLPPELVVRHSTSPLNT
The experiment in a line: DNase I footprinting. Conditions: protected at higher IolQ concentrations (lower affinity); 10 mM Tris-HCl pH 8.0, 1 mM DTT, 10 mM KCl, 5 mM MgCl2, 10% glycerol, 5 ug/ml poly d(I-C), 50 ug/ml BSA, 37 C, 30 min; recombinant protein; protein details: C-terminal His6 (pET-30a); label: 5'-6-FAM on sense or antisense strand; probe letters rebuilt from the primers and the genome.

This note sets out measurements from PMC5504672.

The exact form of at least one protein or probe is not confirmed. A weaker result is weaker than the reference pair of the same experiment. Tags and fusion partners may be left off the protein sequences shown.

With “GAGCTTGTAGTCAGACATTCTACATCACCGCTCAACACATGAGCCCGCTAATGAGCGGGTTTTTTCATTATGACAGTTGAAGCCAAAAAAACATATTGCGTGTAAACCAAAGGCGGTGTAAAATATAACCATCTTTTGAGAAAGCGCTTGCGCAAAATGGCAGAGCGGATAGAACCGCTGTTTTTTTAGCTGTTAAGAGAAAACGCTTTCTCAAAGCGAGCCCGAAATGAGATAAAGGAGAGGATGGGACGTGGAACATCAAGTAAGATGTGCAGTATTGGGATTAGGAAGGCTCGGTTA (double strand) [iolX promoter 300 bp footprint probe, low affinity region]”, the binding result is given as “binds more weakly”.
